PubChem BioAssay AID2685 (National Center for Advancing Translational Sciences (NCATS), 2010)
This is one part of the list. Further columns of the screen follow, without active or inactive calls. Most of these compounds were active or inconclusive in the main read-out, so they are no random draw. Words in brackets tell the shape of the fitted curve; partial curves, single points and poor fits give uncertain potencies.

Assay: qHTS Assay for Lipid Storage Modulators in Drosophila S3 Cells;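 for cell number change: cells counted by Cell Tracker Red CMTPX staining in the red channel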
Conditions: BODIPY lipid droplet fluorescence, 18-24 h; for cell number change: measured here: cell count max response, cells fed with added oleic acid
Procedure, shortened: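 Drosophila S3 cells got compounds at several concentrations plus oleic acid (400 uM solution). Laser-scanning cytometry with 488 nm excitation read lipid droplets at 500-530 nm and cells at 575-640 nm. Percent activity was relative to 20 uM Triacsin C.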

[1] = measured here: lipid fluorescence (Fed channel) AC50, cells fed with added oleic acid
[2] = measured here: cell number channel AC50, cells fed with added oleic acid

Compound: Cc1[nH]n(-c2ccccc2)c(=O)c1C(c1ccc(C(=O)O)cc1)c1c(C)[nH]n(-c2ccccc2)c1=O
- cell number change: 4.16%
- AC50 [1]: 8.2 µM [rising, partial curve, poor fit]

Compound: Cc1cc(F)ccc1S(=O)(=O)N1CCCOC1CNC(=O)C(=O)NCc1cccnc1 (configuration not stated)
- AC50 [1]: 29.1 µM [rising, single point]

Compound: O=S(=O)(c1ccc(NCCOc2ccccc2)nc1)N1CCCC1
- cell number change: 1.1%
- AC50 [1]: 29.1 µM [rising, single point]

Compound: Cc1ccc(NC(=O)C(C)NC(=O)OCc2ccccc2)cc1C (configuration not stated)
- cell number change: -38.4%
- AC50 [2]: 25.9 µM [falling, single point]

Compound: COc1ccccc1NC(=O)N1CCC(C(=O)c2ccc(Cl)cc2)CC1
- cell number change: 31.1%
- AC50 [2]: 0.13 µM [rising, full curve, poor fit]
- AC50 [1]: 0.116 µM [rising, full curve, poor fit]

Compound: Cc1cccc(NC(=O)CSc2cccc3cccnc23)c1C
- cell number change: -12%

Compound: CCc1cccc(CC)c1N(COC)C(=O)Cn1ccccc1=N
- cell number change: 5.94%
- AC50 [2]: 0.58 µM [falling, full curve, poor fit]
- AC50 [1]: 2.06 µM [falling, partial curve]

Compound: C=C(C(=O)c1ccccc1)C(C)CC(=O)c1ccccc1 (configuration not stated)
- cell number change: -14.2%
- AC50 [1]: 29.1 µM [falling, single point]

Compound: Cc1ccc(/C(N)=N/OC(=O)C23CC4CC(CC(C4)C2)C3)cc1
- cell number change: -40.9%
- AC50 [2]: 3.66 µM [falling, full curve, poor fit]

Compound: CCC(C)n1c(SCC(=O)NC2CCS(=O)(=O)C2)nc2ccccc2c1=O (configuration not stated)
- cell number change: -5.02%

Compound: Cc1ccc(NC(=O)Nc2ccon2)cc1Cl
- cell number change: -37.1%
- AC50 [2]: 32.6 µM [falling, single point]
- AC50 [1]: 29.1 µM [falling, single point]

Compound: COc1ccc(CNC(=O)[C@]2(C)CCC[C@@]3(C)C4CC[C@@]5(C)C[C@]4(CCC32)CC5=O)cc1 (some centres not stated)
- cell number change: -10%
- AC50 [2]: 0.731 µM [falling, single point]

Compound: O=C(C1CCCCN1S(=O)(=O)c1ccccc1[N+](=O)[O-])N1CCOCC1 (configuration not stated)
- cell number change: -39.4%
- AC50 [2]: 32.6 µM [falling, single point]

Compound: COc1cccc(CNCc2ccc3c(c2)OCO3)c1
- cell number change: -5.22%
- AC50 [1]: 29.1 µM [rising, single point]

Compound: CCN(CC)c1c([N+](=O)[O-])c(=O)n(CC)c2ccccc12
- cell number change: -14.9%
- AC50 [1]: 0.651 µM [falling, full curve, poor fit]

Compound: O=C(COc1ccc2c(c1)OCO2)Nc1nnc(Cc2ccccc2)s1
- cell number change: 30.8%
- AC50 [2]: 5.8 µM [rising, partial curve]

Compound: COc1ccc(NC(=O)CN(C)CC(=O)Nc2sc3c(c2C#N)CCC3)cc1
- cell number change: 2.88%
- AC50 [1]: 29.1 µM [rising, single point]

Compound: Cc1cc(Cl)ccc1NC(=O)CCCN1C(=O)CCC1=O
- AC50 [2]: 0.259 µM [rising, partial curve, poor fit]
- AC50 [1]: 0.411 µM [rising, partial curve, poor fit]

Compound: COCCNC(=O)CN1C(=O)CC(C)(C)S(=O)(=O)c2ccccc21
- cell number change: 5.39%

Compound: CC1=C(C(=O)NCc2ccccc2)C(c2ccccc2OCC(N)=O)NC(=O)N1 (configuration not stated)
- cell number change: -93.5%
- AC50 [2]: 32.6 µM [falling, single point]

Compound: COc1cccc(CNC(=O)C2Cc3cc(S(=O)(=O)N4CCCC4)ccc3N2C(C)=O)c1OC (configuration not stated)
- AC50 [1]: 0.58 µM [rising, single point]

Compound: O=C(N/N=C/c1c[nH]c2ccccc12)c1cc2ccccc2o1
- cell number change: 8.08%
- AC50 [1]: 2.91 µM [rising, single point]

Compound: Cc1cccc(C(=O)N2CCCC(CCC(=O)N3CCN(c4ccccn4)CC3)C2)c1 (configuration not stated)
- cell number change: -10.5%
- AC50 [1]: 0.13 µM [rising, full curve, poor fit]

Compound: O=C(CCN1C(=O)[C@@H]2Cc3ccccc3CN2C1=O)N[C@@H](C(=O)O)c1ccccc1
- cell number change: 17.2%
- AC50 [1]: 16.4 µM [rising, single point]

Compound: Cc1ccc(S(=O)(=O)NCC(=O)OCC(=O)NCc2cccs2)cc1
- cell number change: 0.509%
- AC50 [1]: 29.1 µM [rising, single point]

Compound: COC(=O)c1cccc(N(CC(=O)NC2CCCC2)C(=O)CNC(=O)c2cccs2)c1
- cell number change: -32.9%
- AC50 [2]: 6.51 µM [falling, partial curve, poor fit]
- AC50 [1]: 5.62 µM [falling, single point]

Compound: Cc1ccc(NC(=O)COc2ccccc2[N+](=O)[O-])nc1
- cell number change: 1.96%

Compound: COc1ccc(NC(=O)Cn2nnc(-c3ccccc3NS(=O)(=O)c3ccc(OC)cc3)n2)cc1
- cell number change: -39.9%
- AC50 [2]: 16.4 µM [falling, single point]
- AC50 [1]: 2.91 µM [falling, full curve]

Compound: CCOC(=O)C1=C(C)NC2=C(C(=O)CCC2)C1c1cn(Cc2ccc(Cl)cc2Cl)nc1-c1ccccc1 (configuration not stated)
- cell number change: -18.4%
- AC50 [1]: 0.411 µM [rising, single point]

Compound: COc1cc(C2C(C#N)=C(N)Oc3n[nH]c(C)c32)cc2c1OCO2 (configuration not stated)
- cell number change: -23.3%
- AC50 [2]: 2.06 µM [falling, full curve, poor fit]

Compound: COc1ccc2c(=O)c3c(=O)n(Cc4ccco4)c(C4CCCCC4)nc3oc2c1
- cell number change: 35.4%
- AC50 [2]: 7.31 µM [rising, partial curve, poor fit]

Compound: COc1ccc(/C=N/NC(=O)c2ccco2)cc1Cn1nc(C)cc1C
- cell number change: 13.5%
- AC50 [1]: 10.3 µM [rising, partial curve]

Compound: O=c1c2ccccc2nc(-c2ccoc2)n1CCc1ccccc1
- cell number change: 101%
- AC50 [2]: 18.4 µM [rising, single point]
- AC50 [1]: 18.4 µM [rising, single point]

Compound: CCCn1c(C(C)Nc2nc(-c3ccc(Cl)c([N+](=O)[O-])c3)cs2)nc2cc(Cl)c(N3CCCCC3)cc21 (configuration not stated)
- cell number change: -5.5%
- AC50 [1]: 29.1 µM [rising, single point]

Compound: Cc1ccc(C(=O)Nc2nc3ccccc3n3nnnc23)cc1
- cell number change: -23.5%
- AC50 [1]: 29.1 µM [falling, single point]

Compound: CC(C)c1nc(SCC(=O)Nc2ccc(N3CCOCC3)cc2)c2ccccc2n1
- cell number change: -43.7%
- AC50 [2]: 32.6 µM [falling, single point]
- AC50 [1]: 20.6 µM [falling, single point]

Compound: O=C(CCN1C(=O)C2CCCCC2C1=O)Nc1nc(-c2ccccc2)cs1 (configuration not stated)
- cell number change: -29.6%
- AC50 [1]: 29.1 µM [falling, single point]

Compound: Cc1cc(C)c(S(=O)(=O)Nc2cccc(S(=O)(=O)N3CCOCC3)c2)c(C)c1
- cell number change: -7.05%
- AC50 [1]: 7.31 µM [falling, partial curve]

Compound: CC12CCC(=O)N1C(C(=O)Nc1cccc(S(=O)(=O)N3CCCCC3)c1)CS2 (configuration not stated)
- cell number change: 66.5%
- AC50 [2]: 20.6 µM [rising, partial curve]
- AC50 [1]: 4.11 µM [rising, single point]

Compound: CC1CC(C)CN(C(=O)c2ccc3ncsc3c2)C1 (configuration not stated)
- cell number change: -0.497%
- AC50 [1]: 0.411 µM [rising, partial curve, poor fit]

Compound: CCOC(=O)C1CCN(c2ccc(-c3cccs3)nn2)CC1
- cell number change: 20.6%
- AC50 [1]: 16.4 µM [rising, single point]

Compound: Cc1cc(C)cc(-n2c(C)cc(/C=N/NC(=O)CSc3ncccn3)c2C)c1
- cell number change: 11.3%
- AC50 [1]: 0.116 µM [rising, full curve, poor fit]

Compound: CC(Oc1ccc(F)cc1)C(O)CCN(C)C (configuration not stated)
- cell number change: -41.6%

Compound: COc1ccc(NC(=O)CSc2nc3c(c(=O)n2-c2ccccc2)SCC3)c(OC)c1
- cell number change: 8.36%
- AC50 [1]: 4.61 µM [rising, full curve]

Compound: COCCNC(=O)CSc1nc2ccccc2c(=O)n1CCCC(=O)NCc1ccccc1
- cell number change: 5.09%
- AC50 [1]: 1.84 µM [rising, full curve]

Compound: COc1cc(CNCc2cccnc2)ccc1OCc1ccccc1
- cell number change: 109%
- AC50 [2]: 1.03 µM [rising, partial curve]
- AC50 [1]: 18.4 µM [rising, partial curve]

Compound: CC(C)Cc1nnc(NC(=O)CCC(=O)NC2CCCc3ccccc32)s1 (configuration not stated)
- cell number change: 11.9%
- AC50 [1]: 0.00517 µM [rising, full curve, poor fit]

Compound: Cn1cccc1C(=O)NNC(=O)c1ccccc1Br
- cell number change: 75%
- AC50 [2]: 29.1 µM [rising, single point]
- AC50 [1]: 0.731 µM [rising, full curve, poor fit]

Compound: O=C(COc1ccccc1)OCC(=O)c1ccc(O)cc1O
- cell number change: -7.96%
- AC50 [1]: 0.058 µM [falling, full curve, poor fit]

Compound: CCOC(=O)COc1ccc(S(=O)(=O)NCc2ccco2)cc1
- cell number change: -9.99%
- AC50 [1]: 11.6 µM [falling, single point]

Compound: Cc1ccc(NC(=O)COc2cccc(-n3cnnn3)c2)cc1[N+](=O)[O-]
- cell number change: 404%
- AC50 [2]: 25.9 µM [rising, single point]
- AC50 [1]: 0.58 µM [rising, single point]

Compound: Nc1cc(=O)[nH]c(SCc2cccc3ccccc23)n1
- cell number change: 24.3%
- AC50 [1]: 29.1 µM [rising, single point]

Compound: COc1ccc([N+](=O)[O-])cc1COc1cc(C)cc2oc(=O)cc(-c3ccccc3)c12
- cell number change: 10.2%
- AC50 [1]: 23.1 µM [falling, single point]

Compound: O=C(CSc1nnc(COc2cccc3cccnc23)o1)N1CCc2ccccc21
- cell number change: -18.7%
- AC50 [1]: 7.31 µM [falling, single point]

Compound: COCCCn1c(=O)/c(=C\c2ccccc2OC(C)C)s/c1=C(/C#N)C(=O)Nc1ccc(C(=O)O)cc1
- cell number change: -19.6%
- AC50 [1]: 29.1 µM [falling, single point]

Compound: CCOc1ccc2nc(NC(=O)c3ccc(OCC4CCCO4)cc3)sc2c1 (configuration not stated)
- cell number change: -46.4%
- AC50 [2]: 18.4 µM [falling, single point]
- AC50 [1]: 16.4 µM [falling, single point]
